# Measured values reported in PubChem BioAssay AID2551 (National Center for Advancing Translational Sciences (NCATS), 2010).
# Chains of the proteins cited; added tags and fusions are not shown. Lines headed by an entry give the natural chain unless they say otherwise; changes in a name come on top.
# UniProt P51450: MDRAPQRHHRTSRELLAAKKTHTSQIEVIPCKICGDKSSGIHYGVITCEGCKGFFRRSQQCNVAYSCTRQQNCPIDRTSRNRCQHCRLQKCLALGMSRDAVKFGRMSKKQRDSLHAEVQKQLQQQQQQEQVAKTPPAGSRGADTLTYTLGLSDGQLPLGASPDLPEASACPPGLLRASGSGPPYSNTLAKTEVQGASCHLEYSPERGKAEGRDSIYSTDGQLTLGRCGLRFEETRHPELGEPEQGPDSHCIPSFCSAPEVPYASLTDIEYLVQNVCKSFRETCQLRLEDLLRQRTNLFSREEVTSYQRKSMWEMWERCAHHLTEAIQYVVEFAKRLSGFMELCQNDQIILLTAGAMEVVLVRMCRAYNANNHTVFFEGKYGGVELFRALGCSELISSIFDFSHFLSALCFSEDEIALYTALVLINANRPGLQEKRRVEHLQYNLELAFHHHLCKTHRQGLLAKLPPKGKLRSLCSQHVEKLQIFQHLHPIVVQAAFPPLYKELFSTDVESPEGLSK
# The campaign covered roughly 310,000 compounds. About 17,000 (5.5%) were called active. The inconclusive results got no clear call from the source; some entries with a clear call stand among them for comparison. Calls follow the shape of the dose curve; as a rule, active = well fitted inhibition curve with a large enough effect; inconclusive = small, poorly fitted or top-dose-only effect, or effect the other way; inactive = no such curve, though single readings can be large or run the other way. Where the call is inconclusive, the potency comes from a doubtful curve fit.
# Biological target: Nuclear receptor ROR-gamma (Mus musculus) (UniProt P51450)
# Assay: qHTS for inhibitors of ROR gamma transcriptional activity; also: nearly all actives have a fitted effect of over 60% in size
# Details: Drosophila S2 Gal4-RORgamma UAS-luciferase reporter, 20 h; activity change, negative = inhibition: at 53.6 µM (top of the series)
# Summary of the method: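 Stable Schneider cell line, Gal4 DNA-binding domain fused to ROR gamma, UAS-luciferase. Cmpd 1 hr RT → CuSO4 700 uM final → 20 hr RT → luciferase reagent 10 min → luminescence.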
# % is scaled to controls: 0 for no effect and ±100 for the full control effect; potency is read from the fitted curve at half-maximal effect.
SMILES,Potency,"activity change, negative = inhibition"
C=CCN=C(NC#N)SC,inactive,
CCOCCCNC(=O)c1ccc2c(c1)N(Cc1ccccc1)C(=O)CS2=O (configuration not stated),"inconclusive: 35.5 µM [activator, single point]",
CCc1nc2c(cnn2-c2ccc(Cl)cc2)c(=O)n1-c1ccc(OC)cc1,"inconclusive: 12.6 µM [activator, partial curve]",
CSc1ccc(/C=C/C(=O)Nc2ccccc2)cc1,"inconclusive: 12.6 µM [inhibitor, single point]",
COc1ccc(C(=O)CSc2nnc3ccc(-c4ccccn4)nn23)cc1,inactive,
O=C1c2cccc(O)c2C(=O)c2c(O)cccc21,"inconclusive: 10 µM [inhibitor, partial curve]",
Cc1cc(SCC(=O)c2ccccc2)nc(=O)[nH]1,"inconclusive: 6.31 µM [activator, single point]",
COc1ccc(OC)c(NC(=O)Cc2coc3ccc(C)cc23)c1,"inconclusive: 7.94 µM [activator, partial curve, poor fit]",
Cc1ccccc1Nc1nnc(SCC2CCCCO2)s1 (configuration not stated),"inconclusive: 14.1 µM [inhibitor, single point]",
O=C(Cc1ccc(Cl)cc1)Nc1ccc(-c2nnc(-c3ccco3)o2)cc1,"inconclusive: 31.6 µM [inhibitor, single point]",
O=C(COC(=O)CN1C(=O)C(=O)c2ccccc21)OCN1C(=O)c2ccccc2C1=O,inactive,
O=C(NC1CCCC1)C(c1ccncc1)N(Cc1ccccc1)C(=O)Cc1cccs1 (configuration not stated),"inconclusive: 35.5 µM [activator, single point]",
COc1ccc(C(=O)NC(=S)NCc2ccccc2)cc1,active: 7.08 µM,
CCC(=O)n1nc(-c2ccc(Cl)cc2)nc1NCc1ccccc1,"inconclusive: 20 µM [activator, single point]",
c1ccc(-c2nc(-c3ccccn3)no2)cc1,active: 2.24 µM,
O=C(NCc1ccco1)Nc1ccc(OC(F)(F)F)cc1,"inconclusive: 25.1 µM [activator, single point]",
CS(=O)(=O)Nc1cc2c3c(c1)CCC(=O)N3CCC2,inactive,
CCc1cccc(C)c1NC(=O)CSc1nnc(C)o1,inactive,
COc1ccc(Nc2nnc(SC(C(=O)Nc3cc(C)ccc3C)c3ccccc3)s2)cc1 (configuration not stated),inactive,
COc1ccc(/C=N/Nc2nc(-c3ccc(Cl)cc3)cc(C(F)(F)F)n2)cc1OC,"inconclusive: 17.8 µM [activator, single point]",
Cc1cc(C)c2c(CC(=O)NC(C)C)coc2c1,"inconclusive: 0.794 µM [inhibitor, single point]",
Nc1ccc(Br)cc1C(=O)O,active: 2.82 µM,
O=C(CN1CCCC1=O)NC1(C(F)(F)F)NC(=O)N(Cc2ccccc2)C1=O (configuration not stated),"inconclusive: 2.51 µM [inhibitor, partial curve]",
C=CCn1c(C)cc(C(=O)CSc2nc(N)cc(N)n2)c1C,"inconclusive: 12.6 µM [activator, partial curve]",
CCOc1cccc2sc(N(CCCN(C)C)C(=O)c3ccc(C(=O)c4ccccc4)cc3)nc12,"inconclusive: 14.1 µM [inhibitor, single point]",
CCCCn1nnnc1SCC(=O)Nc1ccc2c(c1)OCCO2,,inactive: 4.21% [at 10 µM]

SMILES,Potency,"activity change, negative = inhibition"
Cc1ccc([N+](=O)[O-])cc1NC(=S)NC(=O)CC(C)(C)C,active: 6.31 µM,
O=C(O)CSc1c2c(nc3cc(C(=O)NCCN4CCOCC4)ccc13)CCC2,inactive,
CC(=O)N(C1CC(C)C(C#N)(C#N)C1(C#N)C#N)N(C)C (configuration not stated),active: 7.94 µM,
COc1ccc(CCNc2nc(C)nc3c2nnn3Cc2ccccc2)cc1,inactive,
COc1ccc(-c2cc(=O)c3cc(OC)ccc3[nH]2)cc1,"inconclusive: 0.316 µM [inhibitor, partial curve, poor fit]",
O=C(Nc1cc(C(F)(F)F)ccc1N1CCOCC1)c1c(F)c(F)c(F)c(F)c1F,"inconclusive: 4.47 µM [inhibitor, full curve]",
CN(CC(=O)Nc1ccc(N2CCOCC2)cc1)Cc1c(O)ccc2ccccc12,active: 1.78 µM,
O=C(N/N=C\c1cc(Br)cs1)c1ccncc1,active: 1.58 µM,
CC(C)N(Cc1ccccc1)C(=S)NCc1ccccc1,"inconclusive: 20 µM [inhibitor, single point]",
N=C1/C(=C/c2cccn2-c2cccc([N+](=O)[O-])c2)C(=O)N=C2SC=CN12,active: 5.01 µM,
O=C(c1cccc(S(=O)(=O)N2CCOCC2)c1)N1CCN(c2ccc(F)cc2)CC1,"inconclusive: 22.4 µM [activator, single point]",
CCCN(CCC)c1ncnc2c1cnn2-c1ccc(OC)cc1,inactive,
Cc1cc(N2CCN(c3nc(-c4ccc([N+](=O)[O-])cc4)cs3)CC2)c2ccccc2n1,active: 10 µM,
CC1CC(C)(C)NC(=S)N1CCCC(=O)Nc1ccccc1F (configuration not stated),active: 17.8 µM,
Cc1nnnn1/C(=C\c1ccccc1)C(=O)OCC(=O)N1CC2(C)CC1CC(C)(C)C2 (configuration not stated),active: 5.01 µM,
O=C(N/N=C/c1cc(Br)cc(Br)c1O)c1cccc(N2CCCC2=O)c1,active: 3.55 µM,
CN1CCN(C2=Cc3ccccc3Sc3cc(F)c(F)cc32)CC1,active: 7.94 µM,
O=C(Nc1cc2c(cc1C(=O)O)OCCCO2)c1ccc(C(F)(F)F)cc1,"inconclusive: 15.8 µM [activator, single point]",
NC(=O)c1ccc(C(=O)N/N=C(/Cc2ccccc2)c2ccccc2)cc1,inactive,
CCn1c(SCC(=O)Nc2nc(-c3ccc(C)cc3)cs2)nnc1-c1ccccc1O,"inconclusive: 17.8 µM [inhibitor, single point]",
C/C(Cn1nnc([N+](=O)[O-])n1)=N\NC(=O)c1ccc(C)cc1,"inconclusive: 11.2 µM [inhibitor, single point]",
Cc1ccccc1NC(NC(=O)c1cccs1)C(Cl)(Cl)Cl (configuration not stated),"inconclusive: 35.5 µM [activator, single point]",
COc1ccc(S(=O)(=O)N(CC(=O)NCc2ccco2)C2CCCCC2)cc1OC,"inconclusive: 11.2 µM [activator, single point]",
COc1ccccc1NC(=S)NC(NC(=O)C(C)C)C(Cl)(Cl)Cl (configuration not stated),inactive,
CCOC(=O)c1cnc(SCc2cccc(C)c2)nc1N,"inconclusive: 8.91 µM [activator, partial curve, poor fit]",
CC(C)CCNC1=NCCCCC1,inactive,

SMILES,Potency,"activity change, negative = inhibition"
O=C(/C=C/c1ccnc2ccccc12)c1cccs1,"inconclusive: 22.4 µM [inhibitor, single point]",
CCc1cc2c(=O)n(Cc3ccco3)c(SCC(=O)N3CCCc4ccccc43)nc2s1,inactive,
CC1CCN(C(=S)NC(=O)C2CCCCC2)CC1,active: 12.6 µM,
COc1ccc(C(=O)CC(=O)C(=O)Nc2cc(C)ccc2C)cc1,active: 7.08 µM,
CCCCc1nc(NCCO)c(C#N)c2c1CCCC2,inactive,
Cc1nc(C(=O)NNC(=O)c2ccccc2Cl)c(C(F)(F)F)o1,"inconclusive: 15.8 µM [inhibitor, single point]",
O=C(CNC(=O)C(c1ccccc1)c1ccccc1)N/N=C/c1ccc(O)c([N+](=O)[O-])c1,"inconclusive: 35.5 µM [activator, single point]",
O=C(CSc1nc2c(c(=O)n1-c1ccccc1)SCC2)N1CCN(c2ccccc2)CC1,"inconclusive: 5.62 µM [activator, partial curve, poor fit]",
Cc1ccc2cc3c(N)c(C(=O)N4CCOCC4)sc3nc2c1,"inconclusive: 31.6 µM [inhibitor, single point]",
COc1ccc(N2CCN(CC(=O)Nc3nnc(-c4ccccc4)s3)CC2)cc1,active: 10 µM,
CCOc1cccc(/C=N/NC(=O)c2cc(-c3cccn3C)n[nH]2)c1O,active: 2.82 µM,
COc1ccc2[nH]c3c(=O)n(CCCCC(=O)N4CCCC4)c(=S)[nH]c3c2c1,inactive,
S=C1NC[C@H](CC2CCCCC2)N1CCCCC1CCCCC1,active: 1.12 µM,
CCOC(=O)N1CCC(NS(=O)(=O)c2cc3c(cc2Cl)NC(=O)CO3)CC1,"inconclusive: 20 µM [activator, partial curve, poor fit]",
CCC(=O)Nc1ccc(Cl)c(NC(=O)c2ccc(Br)o2)c1,"inconclusive: 7.08 µM [activator, full curve, poor fit]",
COC(=O)C1=C(C)OC(N)=C(C#N)C1c1ccccc1 (configuration not stated),inactive,
O=C(NC1CCCCCC1)c1cccc(N2CCCC2=O)c1,"inconclusive: 35.5 µM [activator, single point]",
O=C(NNc1ncnc2c1cnn2-c1ccccc1)c1ccco1,"inconclusive: 15.8 µM [inhibitor, single point]",
CCn1ccnc1CN(C)Cc1nc(Cc2cccc(C(F)(F)F)c2)no1,active: 17.8 µM,
CCOC(=O)CSc1nc(C)cc(C)n1,"inconclusive: 35.5 µM [inhibitor, single point]",
CCNCCNC(=O)c1c(O)c2cccc3c2n(c1=O)CCC3,"inconclusive: 1.26 µM [inhibitor, single point]",
COc1ccccc1NC(=O)CN1CCOCC1,inactive,
COc1cc(OC)c(C(=O)Oc2ccc3c(c2)OCO3)cc1OC,"inconclusive: 35.5 µM [inhibitor, single point]",
COc1cccc(/C=N/n2c(-c3cccs3)n[nH]c2=S)c1,active: 7.08 µM,
COc1ccc(C(=O)COC(=O)c2cc(S(=O)(=O)NCc3ccccc3)ccc2O)cc1,"inconclusive: 5.62 µM [activator, partial curve]",
